The nature of the assay: S16 Schwann cell PMP22 intronic element beta-lactamase assay (AID 624044). The note with it: S16 rat Schwann cells, PMP22 element beta-lactamase FRET, 24 h. An outline of the steps: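 Beta-lactamase reporter under a PMP22 intronic regulatory element in stable S16 rat Schwann cells; 24 h compound exposure. 460 nm blue signal normalized between DMSO (0%) and potassium clavulanate, with 535 nm FRET tracking viability; curves classed by r2 and response.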

Setting [1] is: measured here: 460 nm blue channel.
The mark [2] stands for this setting: measured here: 530 nm viability channel.

In general, AC50 refers to the concentration at which the activity in the assay is half-maximal. Lower therefore signals greater potency.

The list shows a part of the results. The main result of the screen is listed elsewhere. These columns were measured beside it and carry no call. The list favours compounds with an active or inconclusive main result. Words in brackets tell the shape of the fitted curve; partial curves, single points and poor fits give uncertain potencies.

`O=C(Nc1cccc(C(F)(F)F)c1)c1cc(Br)cc(Br)c1O`: the AC50 under setting [1] is 8.91 µM [falling, partial curve, poor fit] and the AC50 under setting [2] was 11.2 µM [falling, partial curve].
As to `CCN(CC)CCOCCOC(=O)C(CC)(CC)c1ccccc1` (tested in a mixture with another compound), the AC50 is 12.6 µM [rising, full curve, poor fit] under setting [1] and 11.2 µM [rising, full curve, poor fit] under setting [2].
Consider `C/C1=C2/[N-]C(C(CC(N)=O)[C@@]2(C)CCC(=O)NCC(C)OP(=O)([O-])O[C@H]2[C@@H](O)[C@@H](n3cnc4cc(C)c(C)cc43)O[C@@H]2CO)[C@]2(C)N=C(/C(C)=C3N=C(/C=C4N=C1C(CCC(N)=O)C\4(C)C)[C@@H](CCC(N)=O)[C@]\3(C)CC(N)=O)[C@@H](CCC(N)=O)[C@]2(C)CC(N)=O.CC(=O)O.[Co]` (some centres not stated), for which the AC50 under setting [1] was 2.51 µM [falling, full curve] and the AC50 under setting [2] was 2.51 µM [falling, full curve].
Regarding `COC(C(=O)C(O)C(C)O)C1Cc2cc3cc(OC4CC(OC5CC(O)C(O)C(C)O5)C(O)C(C)O4)c(C)c(O)c3c(O)c2C(=O)C1OC1CC(OC2CC(OC3CC(C)(O)C(O)C(C)O3)C(O)C(C)O2)C(O)C(C)O1` (configuration not stated), the AC50 under setting [1] was 0.501 µM [falling, full curve] and the AC50 under setting [2] is 17.8 µM [rising, partial curve].
Consider `CCCCC(=O)N(Cc1ccc(-c2ccccc2-c2nn[nH]n2)cc1)C(C(=O)O)C(C)C` (configuration not stated), for which the AC50 reads like this: under setting [1], 3.16 µM [falling, full curve, poor fit]; under setting [2], 2.51 µM [falling, partial curve].
As for `COc1ccc(CN(CCN(C)C)c2ncccn2)cc1`, the AC50 under setting [1] was 25.1 µM [falling, single point] and the AC50 under setting [2] is 0.00891 µM [falling, full curve, poor fit].
For the compound `CCCCC[C@H](O)/C=C/[C@@H]1[C@H]2C/C(=C/CCCC(=O)O)O[C@H]2C[C@H]1O`, the AC50 is, setting by setting: under setting [1], 0.00562 µM [falling, full curve, poor fit]; under setting [2], 3.55 µM [falling, full curve, poor fit].
As for `CC(C)NC[C@H]1CCc2cc(CO)c([N+](=O)[O-])cc2N1`, the AC50 under setting [1] was 10.7 µM [falling, single point] and the AC50 under setting [2] is 11.2 µM [falling, single point].
Regarding `CC1CCCCN1CCCOC(=O)c1ccccc1` (configuration not stated), the AC50 is 25.1 µM [rising, single point] under setting [1] and 28.2 µM [rising, single point] under setting [2].
Consider `Cc1cn([C@H]2C[C@H](O)[C@@H](CO)O2)c(=O)[nH]c1=O`, for which the AC50 was 1.26 µM [falling, full curve, poor fit] under setting [1] and 0.316 µM [falling, full curve] under setting [2].
As to `CNCC(=O)NC(CCCN=C(N)N)C(=O)NC(C(=O)NC(Cc1ccc(O)cc1)C(=O)NC(C(=O)NC(Cc1cnc[nH]1)C(=O)N1CCCC1C(=O)NC(C)C(=O)O)C(C)C)C(C)C` (configuration not stated), the concentration at half-maximal activity (AC50) under setting [1] was 7.94 µM [falling, single point] and the AC50 under setting [2] is 2.24 µM [falling, full curve, poor fit].
With `COc1ccc(CC(N)C(=O)NC2C(CO)OC(n3cnc4c(N(C)C)ncnc43)C2O)cc1` (configuration not stated), the AC50 is, setting by setting: under setting [1], 9.99 µM [falling, full curve]; under setting [2], 7.94 µM [rising, full curve].
For `C[S+](CC[C@H](N)C(=O)O)C[C@H]1O[C@@H](n2cnc3c(N)ncnc32)[C@H](O)[C@@H]1O` (some centres not stated), the AC50 was 14.1 µM [falling, single point] under setting [1] and 2 µM [falling, full curve] under setting [2].
As for `Cc1cccn2c(=O)c(-c3nnn[nH]3)cnc12`, the AC50 by setting is: under setting [1], 5.62 µM [falling, full curve, poor fit]; under setting [2], 1.26 µM [falling, full curve, poor fit].
Take `NC(=O)NS(=O)(=O)c1ccc(N)cc1`: the AC50 is 0.999 µM [falling, full curve, poor fit] under setting [1] and 1.78 µM [falling, full curve, poor fit] under setting [2].
With `O=C(O)CCC/C=C\C[C@@H]1[C@@H](/C=C/[C@@H](O)COc2cccc(Cl)c2)[C@H](O)C[C@@H]1O`, the AC50 by setting is: under setting [1], 22.4 µM [falling, single point]; under setting [2], 28.2 µM [falling, single point].

The values above are taken from PubChem BioAssay (NCATS).
